Experimental data reported in patent US20190352689A1.
These are yes or no findings as the source states them, for the method shown. For part of these data: Binding seen in cells or lysates may run through a third protein. Some results given as binding are weak or reduced against the parent protein; the word gives no strength. Sequences can lack the tags named with a protein.

The chains behind the UniProt entries cited, without tags or fusion partners. Where a name states a change or a piece, a line headed by the entry shows the natural chain unless it says otherwise.
UniProt Q14764: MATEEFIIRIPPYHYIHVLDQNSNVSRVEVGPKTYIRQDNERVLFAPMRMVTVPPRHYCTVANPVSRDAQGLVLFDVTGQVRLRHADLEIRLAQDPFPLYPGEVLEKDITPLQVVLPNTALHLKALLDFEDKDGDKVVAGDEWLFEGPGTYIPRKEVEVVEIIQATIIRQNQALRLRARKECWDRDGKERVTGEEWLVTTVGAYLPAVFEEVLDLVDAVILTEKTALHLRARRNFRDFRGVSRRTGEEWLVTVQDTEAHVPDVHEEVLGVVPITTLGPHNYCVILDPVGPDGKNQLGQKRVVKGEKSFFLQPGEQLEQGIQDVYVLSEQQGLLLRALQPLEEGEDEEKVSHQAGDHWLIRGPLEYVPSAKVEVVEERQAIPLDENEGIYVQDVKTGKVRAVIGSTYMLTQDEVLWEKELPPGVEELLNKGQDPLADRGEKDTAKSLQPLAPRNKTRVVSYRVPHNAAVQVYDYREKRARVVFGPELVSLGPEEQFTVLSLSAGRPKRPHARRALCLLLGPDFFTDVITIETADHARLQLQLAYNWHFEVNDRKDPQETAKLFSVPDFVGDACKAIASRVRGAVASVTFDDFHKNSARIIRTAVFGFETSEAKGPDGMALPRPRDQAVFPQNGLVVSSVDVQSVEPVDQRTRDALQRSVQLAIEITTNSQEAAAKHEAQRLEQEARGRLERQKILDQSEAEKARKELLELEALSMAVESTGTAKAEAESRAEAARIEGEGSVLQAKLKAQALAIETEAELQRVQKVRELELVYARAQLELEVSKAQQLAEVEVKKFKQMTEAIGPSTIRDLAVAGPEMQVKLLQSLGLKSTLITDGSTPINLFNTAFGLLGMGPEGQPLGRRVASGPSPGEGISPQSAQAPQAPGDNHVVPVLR

Tests used:
[1] = target: yeast vaults (recombinant vault particles assembled from human MVP expressed in Pichia pastoris) (human) (UniProt Q14764); test: co-purification, SDS-PAGE with Coomassie staining and TEM (FIG. 5)
[2] = target: yeast vaults (recombinant vault particles assembled from human MVP expressed in Pichia pastoris) (human) (UniProt Q14764); test: co-purification with vaults, SDS-PAGE with Coomassie staining
[3] = target: yeast vaults (recombinant vault particles assembled from human MVP expressed in Pichia pastoris) (human) (UniProt Q14764); test: mINT fusion packaging, comparison of yeast and insect vaults
[4] = target: insect vaults (recombinant vault particles of human MVP produced in Sf9 insect cells) (human) (UniProt Q14764); test: as above
[5] = target: insect vaults (recombinant vault particles of human MVP produced in Sf9 insect cells) (human) (UniProt Q14764); test: mINT fusion packaging into vaults from Sf9 host cells
[6] = target: yeast vaults (recombinant vault particles assembled from human MVP expressed in Pichia pastoris) (human) (UniProt Q14764); test: packaging by mixing lysates, FPLC purification, SDS-PAGE, EM
[7] = target: yeast vaults (recombinant vault particles assembled from human MVP expressed in Pichia pastoris) (human) (UniProt Q14764); test: mINT fusion packaging into vaults from yeast host cells
[8] = target: insect vaults (recombinant vault particles of human MVP produced in Sf9 insect cells) (human) (UniProt Q14764); test: average number of mINT passenger molecules per vault particle, Sf9-produced vaults compared with yeast vaults
[9] = target: yeast vaults (recombinant vault particles assembled from human MVP expressed in Pichia pastoris) (human) (UniProt Q14764); test: FPLC co-purification, SDS-PAGE, EM (FIG. 10)

binding [1]: binds | binding [2]: binds | binding [3]: binds | binding [4]: binds | binding [5]: binds | binding [6]: binds | binding [7]: binds | binding [8]: binds | binding [9]: binds
B1: mCherry-INT (mCherry fused to the INT domain of VPARP) (protein, UniProt Q9UKK3 1563-1724, looked up, not shown: large carriers)
chain: CIQHWQDAVPWTELLSLQTEDGFWKLTPELGLILNLNTNGLHSFLKQKGIQSLGVKGRECLLDLIATMLVLQFIRTRLEKEGIVFKSLMKMDDASISRNIPWAFEAIKQASEWVRRTEGQYPSICPRLELGNDWDSATKQLLGLQPISTVSPLHRVLHYSQG
